Laboratory results: publication PMC11655846

Target: T1, ubiquitin-specific peptidase 39 (USP39) (human (endogenous in NCI-H1975)) (UniProt Q53GS9)
T1 sequence: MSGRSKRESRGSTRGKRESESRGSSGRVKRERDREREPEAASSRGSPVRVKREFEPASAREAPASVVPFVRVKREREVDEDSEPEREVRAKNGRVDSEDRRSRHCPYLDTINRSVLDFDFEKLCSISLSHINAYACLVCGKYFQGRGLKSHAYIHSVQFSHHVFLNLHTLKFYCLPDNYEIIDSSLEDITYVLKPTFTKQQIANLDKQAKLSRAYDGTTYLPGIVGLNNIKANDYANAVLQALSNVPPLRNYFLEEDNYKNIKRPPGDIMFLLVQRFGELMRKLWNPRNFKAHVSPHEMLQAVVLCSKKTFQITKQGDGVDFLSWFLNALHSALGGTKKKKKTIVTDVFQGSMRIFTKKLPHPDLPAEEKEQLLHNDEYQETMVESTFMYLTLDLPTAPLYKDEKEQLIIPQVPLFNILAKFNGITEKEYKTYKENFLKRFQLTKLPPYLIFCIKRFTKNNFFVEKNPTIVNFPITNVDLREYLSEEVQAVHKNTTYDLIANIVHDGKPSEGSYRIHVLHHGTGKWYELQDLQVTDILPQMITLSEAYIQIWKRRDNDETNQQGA
Test: affinity purification with mass spectrometry; endogenous USP39 immunoprecipitated from NCI-H1975 lysate (1% digitonin, 150 mM NaCl, 25 mM Tris, pH 7.5) with USP39 antibody on Dynabeads Protein A, overnight; beads washed four times with PBS; on-bead trypsin digest, LC-MS/MS; isotype antibody control

binding: binds
B1: dihydrolipoamide S-acetyltransferase (DLAT) (enzyme, UniProt P10515 87-647)
chain: SLPPHQKVPLPSLSPTMQAGTIARWEKKEGDKINEGDLIAEVETDKATVGFESLEECYMAKILVAEGTRDVPIGAIICITVGKPEDIEAFKNYTLDSSAAPTPQAAPAPTPAATASPPTPSAQAPGSSYPPHMQVLLPALSPTMTMGTVQRWEKKVGEKLSEGDLLAEIETDKATIGFEVQEEGYLAKILVPEGTRDVPLGTPLCIIVEKEADISAFADYRPTEVTDLKPQVPPPTPPPVAAVPPTPQPLAPTPSAPCPATPAGPKGRVFVSPLAKKLAVEKGIDLTQVKGTGPDGRITKKDIDSFVPSKVAPAPAAVVPPTGPGMAPVPTGVFTDIPISNIRRVIAQRLMQSKQTIPHYYLSIDVNMGEVLLVRKELNKILEGRSKISVNDFIIKASALACLKVPEANSSWMDTVIRQNHVVDVSVAVSTPAGLITPIVFNAHIKGVETIANDVVSLATKAREGKLQPHEFQGGTFTISNLGMFGIKNFSAIINPPQACILAIGASEDKLVPADNEKGFDVASMMSVTLSCDHRVVDGAVGAQWLAEFRKYLEKPITMLL

These are yes or no findings as the source states them, for the method shown. Binding seen in cells or lysates may run through a third protein. A yes stands for co-enrichment or nearness to the bait. Other partners may have been found.
